For this assay, the target named is COP1 over-expressed in HEK 293T cells (UniProt Q8NHY2). In words: co-IP; HEK 293T cells transfected with COP1 over-expression plasmid, 10 uM MG-132 for 6 hours, NP-40 lysis buffer; anti-COP1 antibody (IgG as control), protein A/G agarose, 4°C; detected by WB.

Amino acid sequences for entries named in this document (tags omitted).
UniProt Q8NHY2: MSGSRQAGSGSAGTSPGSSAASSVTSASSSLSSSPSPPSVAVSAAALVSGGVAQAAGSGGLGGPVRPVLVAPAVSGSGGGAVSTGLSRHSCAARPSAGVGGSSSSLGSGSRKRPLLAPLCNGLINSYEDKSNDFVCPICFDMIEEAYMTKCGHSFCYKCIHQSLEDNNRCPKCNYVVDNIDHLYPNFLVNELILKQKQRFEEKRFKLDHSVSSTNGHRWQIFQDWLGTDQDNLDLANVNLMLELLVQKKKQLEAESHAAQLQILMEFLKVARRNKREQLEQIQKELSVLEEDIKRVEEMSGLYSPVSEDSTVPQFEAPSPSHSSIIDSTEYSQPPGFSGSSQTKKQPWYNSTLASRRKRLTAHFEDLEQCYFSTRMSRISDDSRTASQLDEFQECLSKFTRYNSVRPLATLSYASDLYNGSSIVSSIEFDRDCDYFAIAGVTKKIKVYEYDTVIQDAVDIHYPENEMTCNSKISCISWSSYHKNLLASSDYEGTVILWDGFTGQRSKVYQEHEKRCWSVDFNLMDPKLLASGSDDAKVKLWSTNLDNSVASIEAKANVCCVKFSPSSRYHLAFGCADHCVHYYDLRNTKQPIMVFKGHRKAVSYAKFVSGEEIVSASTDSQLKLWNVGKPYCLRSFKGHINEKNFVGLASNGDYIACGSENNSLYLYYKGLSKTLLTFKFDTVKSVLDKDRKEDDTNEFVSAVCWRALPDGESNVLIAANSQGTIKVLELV

Results are given in words; binding and its absence hold for the method and conditions named. Binding seen in cells or lysates may run through a third protein. Some results given as binding are weak or reduced against the parent protein; the word gives no strength.

Our source for the binding values is paper PMC10072965.

B1: CDH18 in HEK 293T lysate (protein, UniProt Q13634 54-790)
chain: GWVWNQFFVLEEHMGPDPQYVGKLHSNSDKGDGSVKYILTGEGAGTIFIIDDTTGDIHSTKSLDREQKTHYVLHAQAIDRRTNKPLEPESEFIIKVQDINDNAPKFTDGPYIVTVPEMSDMGTSVLQVTATDADDPTYGNSARVVYSILQGQPYFSVDPKTGVIRTALHNMDREAREHYSVVIQAKDMAGQVGGLSGSTTVNITLTDVNDNPPRFPQKHYQLYVPESAQVGSAVGKIKANDADTGSNADMTYSIINGDGMGIFSISTDKETREGILSLKKPLNYEKKKSYTLNIEGANTHLDFRFSHLGPFKDATMLKIIVGDVDEPPLFSMPSYLMEVYENAKIGTVVGTVLAQDPDSTNSLVRYFINYNVEDDRFFNIDANTGTIRTTKVLDREETPWYNITVTASEIDNPDLLSHVTVGIRVLDVNDNPPELAREYDIIVCENSKPGQVIHTISATDKDDFANGPRFNFFLDERLPVNPNFTLKDNEDNTASILTRRRRFSRTVQDVYYLPIMISDGGIPSLSSSSTLTIRVCACERDGRVRTCHAEAFLSSAGLSTGALIAILLCVLILLAIVVLFITLRRSKKEPLIISEEDVRENVVTYDDEGGGEEDTEAFDITALRNPSAAEELKYRRDIRPEVKLTPRHQTSSTLESIDVQEFIKQRLAEADLDPSVPPYDSLQTYAYEGQRSEAGSISSLDSATTQSDQDYHYLGDWGPEFKKLAELYGEIESERTT
Turning to B1, the binding entry is “binds”.
